The values that follow come from publication PMC5923120, “Acylhydrazones as Antifungal Agents Targeting the Synthesis of Fungal Sphingolipids” (Antimicrobial Agents and Chemotherapy, 2018).

Molecules are shown by their SMILES.

The test system of the series is A549. Briefly: In vitro toxicity (MTT), A549. Format: cell-based, human. To be noted: ratio of IC50 against mammalian cell line and MIC80 against C. neoformans. The protocol:
The murine macrophage cell line J774 and human cancer cell lines A549 and HepG2 were maintained in DMEM containing 10% fetal bovine serum (FBS) and 1% penicillin-streptomycin. At passage 7, 10^5 cells/well in DMEM containing 10% FBS were transferred into 96-well plates and cultured for 14 h for the cells to adhere to the wells. The compounds were added to the cells at concentrations ranging from 0.03 to 128 μg/ml. The wells without the compound served as controls. […] After 24 or 48 h, the supernatant was removed and 50 μl of 5-mg/ml 3-(4,5-dimethylthiazol-2-yl)-2,5-diphenyltetrazoliumbromide (MTT) solution in phosphate-buffered saline (PBS) was added to each well. The plates were incubated for an additional 4 h. The formazan crystal formed inside the cell was dissolved by adding 50 μl of dimethyl sulfoxide (DMSO). The optical density was measured at 570 nm.

On to `Cc1ccccc1C(=O)N/N=C/c1cc(Br)ccc1O` [BHBM, (E)-N′-(3-bromo-6-hydroxybenzylidene)-2-methylbenzohydrazide], for which the “SI of A549 or HepG2” value came out at 32. For the compound `O=C(N/N=C/c1cc(Br)cc(Br)c1O)c1ccc(Br)cc1` [D13], the “SI of A549 or HepG2” value is recorded as > 4,000.
